Assay results

The results are deposited in PubChem (AID1296009; NCATS, 2018).

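ATP-based luminescent viability readout in virus-positive and virus-negative MCC lines, measured at 72 h.
Dose-response series of 8 or 11 points, topping out at 44.8 µM.
The number is a fitted potency (AC50, nM) for loss of viability; a lower value means a more potent compound.
Calls follow curve shape: inconclusive marks small, poorly fitted or top-dose-only inhibition, while active requires a well-fitted curve with a large effect.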

Values are in nM.
All entries here are filed as inconclusive.
These entries are mostly ones the record files as inconclusive; other results of the assay are not listed here.
Potencies fitted to partial, single-point or poorly fitting curves are rough.
Some entries filed as inconclusive have a full curve.

* COc1cc2c(cc1OC)C(C(C(=O)N(CCc1ccc(OC)c(OC)c1OC)CCc1ccc(OC)c(OC)c1OC)c1ccccc1)=NCC2 (stereo unspecified) [MKL-2] | potency 11885 nM (inhibitor, partial curve, poor fit)
* CC1COC2(c3ccccc3Cl)c3cc(Cl)ccc3NC(=O)CN12 (stereo unspecified) [WaGa] | potency 14963 nM (inhibitor, single point)
* CC1COC2(c3ccccc3Cl)c3cc(Cl)ccc3NC(=O)CN12 (stereo unspecified) [MKL-2] | potency 23715 nM (inhibitor, single point)
* CC(C)(O)C(=O)Nc1ccc([N+](=O)[O-])c(C(F)(F)F)c1 [WaGa] | potency 1049 nM (inhibitor, full curve)
* CC(C)(O)C(=O)Nc1ccc([N+](=O)[O-])c(C(F)(F)F)c1 [MKL-2] | potency 935 nM (inhibitor, full curve)
* CO[C@@H]1[C@@H](O[C@@H]2O[C@H](C)[C@@H](O[C@H]3C[C@@](C)(O)[C@@H](O)[C@H](C)O3)[C@H](N(C)C)[C@H]2O)[C@@H](CC=O)C[C@@H](C)[C@@H](O[C@@H]2CC[C@H](N(C)C)[C@@H](C)O2)/C=C/C=C/C[C@@H](C)OC(=O)C[C@H]1OC(C)=O [WaGa] | potency 14963 nM (inhibitor, partial curve)
* CC1(N2CCC(n3c([C@@H]4CCCNC4)nc4ccccc43)CC2)CCCCCCC1 [UISO] | potency 29565 nM (inhibitor, single point)
* CCCC(=O)c1cc(O)c(O)cc1O [MKL-1] | potency 38570 nM (inhibitor, single point)
* C[C@H](CN1CCCC1)C(=O)c1ccc(C(F)(F)F)cc1 [MKL-2] | potency 4217 nM (inhibitor, partial curve, poor fit)
* Nc1ccc(Cl)cc1C(=O)c1ccccc1F [UISO] | potency 29855 nM (inhibitor, single point)
* Cc1ccc2nc(N)[nH]c(=O)c2c1Sc1ccncc1 [MCC-13] | potency 26608 nM (inhibitor, partial curve, poor fit)
* CC(C)[N+](C)(CCOC(=O)C1c2ccccc2Oc2ccccc21)C(C)C [MKL-1] | potency 16788 nM (inhibitor, partial curve)
* O=[N+]([O-])c1cc([As](=O)(O)O)ccc1O [MKL-2] | potency 26608 nM (inhibitor, single point)
* Cc1nnc2n1-c1sc(CCc3ccc(CC(C)C)cc3)cc1C(c1ccccc1Cl)=NC2C (stereo unspecified) [MKL-1] | potency 23715 nM (inhibitor, single point)
* Cc1nnc2n1-c1sc(CCc3ccc(CC(C)C)cc3)cc1C(c1ccccc1Cl)=NC2C (stereo unspecified) [MCC-13] | potency 23715 nM (inhibitor, single point)
* CCC1=C[C@@H]2CN(C1)Cc1c([nH]c3ccccc13)[C@@](C(=O)OC)(c1cc3c(cc1OC)N(C)[C@H]1[C@@](O)(C(=O)OC)[C@H](OC(C)=O)[C@]4(CC)C=CCN5CC[C@]31[C@@H]54)C2 [MCC-13] | potency 298.6 nM (inhibitor, full curve)
* O=C(Nc1ccc(Br)cc1)c1cc(Br)cc(Br)c1O [WaGa] | potency 23715 nM (inhibitor, partial curve, poor fit)
* COC(=O)[C@@H](N)Cc1ccc(O)c(O)c1 [MKL-1] | potency 26608 nM (inhibitor, single point)

For reference, 2 entries once more:

For CC1COC2(c3ccccc3Cl)c3cc(Cl)ccc3NC(=O)CN12 (stereo unspecified) [MKL-2] the result was potency 23715 nM (inhibitor, single point).
For CCC1=C[C@@H]2CN(C1)Cc1c([nH]c3ccccc13)[C@@](C(=O)OC)(c1cc3c(cc1OC)N(C)[C@H]1[C@@](O)(C(=O)OC)[C@H](OC(C)=O)[C@]4(CC)C=CCN5CC[C@]31[C@@H]54)C2 [MCC-13] the result was potency 298.6 nM (inhibitor, full curve).